For at least one compound, name, drawing or mass did not settle the structure.
How the values were obtained:
[1] = tested on: human breast cancer MCF-7 cells; assay: Proliferation of MCF-7 cells (DNA content); assay type: cell-based; conditions: Experiment 1
Method: The MCF-7 human breast adenocarcinoma cell line was derived from the pleural effusion of a patient. MCF-7 cells were used between passages 148 and 165 and subcultured weekly.
Cells in their late logarithmic growth phase were harvested with 0.1% pancreatin (Sigma) and resuspended in the appropriate medium containing 50 ng bovine insulin/mL and 5% (v/v) FBS treated twice with dextran-coated charcoal to remove endogenous steroids. Cells were plated in 24-well Falcon plastic culture plates (2 Cm^2/well) at the indicated density and allowed to adhere to the surface of the plates for 72 h. Thereafter, medium was replaced with fresh medium containing the indicated concentrations of compounds diluted from 1000× stock solutions in 99% redistilled ethanol in the presence or absence of E2. Control cells received only the ethanolic vehicle (0.1% EtOH, v/v). Cells were incubated for the specified time intervals with medium changes at 2- or 3-day intervals. Cell number was determined by measurement of DNA content.
Dose-response curves as well IC50 values were calculated using a weighted iterative nonlinear least-squares regression. All results are expressed as means±SEM.

ovariectomized mice = assay: Estrogenic activity: uterine and vaginal weight in ovariectomized mice, compounds alone; assay type: in vivo, BALB/c mice; conditions: OVX mice, no estrone; daily oral 3 μg and 30 μg
Method: Female BALB/c mice (BALB/cAnNCrlBR) weighing 18-20 g were obtained from Charles-River, Inc. (St-Constant, Quebec, Canada) and housed 5 per cage in a temperature (23±1° C.)- and light (12 h light/day, lights on at 7:15)-controlled environment. The mice were fed rodent chow and tap water ad libitum. The animals were ovariectomized (OVX) under Isoflurane anesthesia via bilateral flank incisions and randomly assigned to groups of 10 animals. Ten mice were kept intact as controls.
In the second experiment (Table 4), TSE 424 was administered orally by gavage once daily at doses of 1, 3, 10 or 30 μg/animal for 9 days, starting 2 days after ovariectomy. In both experiments, to evaluate the antiestrogenic activity, treatment with estrone (E1, 0.06 μg, s.c. injection, twice daily) was started 5 days post-ovariectomy and was administered for a 6 day-period. Compounds were dissolved in ethanol (4% final concentration) and administered in 0.4% methylcellulose. Mice in the intact and OVX control groups received the vehicle alone (4% ETOH-0.4% methylcellulose) during the 9-day period. The animals were killed by exsanguination at the abdominal aorta on the 11th morning following ovariectomy. The uteri and vagina were rapidly dissected, weighed, and kept in 10% buffered formalin for further histologic examination.

Cc1c(-c2ccc(O)cc2)n(Cc2ccc(OCCN3CCCCCC3)cc2)c2ccc(O)cc12 [TSE 424, 1-[[4-[2-(hexahydro-1H-azepin-1-yl)ethoxy]phenyl]methyl]-2-(4-hydroxyphenyl)-3-methyl-1H-indol-5-ol, acetate]
Maximal stimulation of DNA by tested compounds [1]: N.S. | stimulatory effect on uterine weight (ovariectomized mice): no significant stimulatory effect
